# Data source: PubChem BioAssay AID1259405 (NCATS, 2018)
# Assay: 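Knock-downs that lift recombinant protein yield in hamster ovary cells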 (primary screen)
# Cells: Chinese hamster CHO-K1 ovary cells with stable secreted eGFP expression
# Knock-down reagent: single siRNA against mouse genes, 0.8 pmol siRNA per well (2 µl of 400 nM stock)
# Timing: 3 days
# Measured: 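Per-well intracellular GFP measured by laser scanning cytometry, plus viability from ATP luminescence, each relative to plate median of non-targeting control wells, in %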
# Scale: GFP, % of control: higher = more GFP per well, higher productivity; viability (ATP), % of control: higher = more viable cells (more ATP)
# Active means: 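a knock-down is called active if GFP reaches 120% or more of non-targeting control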
# Here is one part, drawn at random, of about 50,000 reagents. Of all reagents, about 4,000 (8%) were called active. 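Mouse siRNA library applied to hamster cells; one well for each siRNA.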 A number with no mark means an inactive call. The numbers tell different reagents against one gene apart.
gene,reagent no.,"GFP, % of control","viability (ATP), % of control"
Zbtb49 (GeneID 75079),1,45.5,48.6
Zbtb49 (GeneID 75079),2,77.3,65.9
Zbtb49 (GeneID 75079),3,79.8,100
Sun5 (GeneID 76407),1,65.4,80.2
Sun5 (GeneID 76407),2,62,92.4
Sun5 (GeneID 76407),3,74.9,69.2
Cpne4 (GeneID 74020),1,86.6,96.6
Cpne4 (GeneID 74020),2,88.1,88.8
Klhl31 (GeneID 244923),1,86.6,90.7
Klhl31 (GeneID 244923),2,48.4,40.3
Klhl31 (GeneID 244923),3,68.4,68.1
Klhl31 (GeneID 244923),4,79.3,71.6
Klhl31 (GeneID 244923),5,68,79.7
Klhl31 (GeneID 244923),6,56.4,92.2
Ltbp1 (GeneID 268977),1,75.3,59.6
Ltbp1 (GeneID 268977),2,114,108
Ltbp1 (GeneID 268977),3,72.5,69.1
Cyp46a1 (GeneID 13116),1,57.9,76.2
Cyp46a1 (GeneID 13116),2,38.4,70.7
Cyp46a1 (GeneID 13116),3,50.8,52.4
Actg1 (GeneID 11465),1,77.2,101
Actg1 (GeneID 11465),2,57.5,69.2
Actg1 (GeneID 11465),3,96.6,51.8
S1pr2 (GeneID 14739),1,69.2,45.1
S1pr2 (GeneID 14739),2,83.8,78.4
S1pr2 (GeneID 14739),3,87.7,85.8
Or1e1f (GeneID 258343),1,83.9,81.3
Or1e1f (GeneID 258343),2,76.7,94.4
Or1e1f (GeneID 258343),3,89.5,80
A730085E03Rik (GeneID 100504650),1,67.7,49.2
A730085E03Rik (GeneID 100504650),2,53,58.1
A730085E03Rik (GeneID 100504650),3,35.8,43.4
Calb1 (GeneID 12307),1,95.3,96
Calb1 (GeneID 12307),2,65.4,71.9
Psme3 (GeneID 19192),1,89.7,94.8
Psme3 (GeneID 19192),2,56.2,46.6
Psme3 (GeneID 19192),3,73.7,102

Reprinted from above, 5 entries:
gene,reagent no.,"GFP, % of control","viability (ATP), % of control"
Klhl31 (GeneID 244923),1,86.6,90.7
Klhl31 (GeneID 244923),2,48.4,40.3
Klhl31 (GeneID 244923),3,68.4,68.1
Klhl31 (GeneID 244923),4,79.3,71.6
Klhl31 (GeneID 244923),5,68,79.7

More reagents:
gene,reagent no.,"GFP, % of control","viability (ATP), % of control"
Katna1 (GeneID 23924),1,73,72.6
Katna1 (GeneID 23924),2,49.2,116
Chchd6 (GeneID 66098),1,96.7,81.8
Chchd6 (GeneID 66098),2,76.1,85.5
Chchd6 (GeneID 66098),3,128 (active),86.8
Or7g27 (GeneID 258249),1,62.1,30.4
Or7g27 (GeneID 258249),2,104,71
Or7g27 (GeneID 258249),3,64.6,48.3
Reep5 (GeneID 13476),1,80.8,91.7
Reep5 (GeneID 13476),2,71.1,66.3
Reep5 (GeneID 13476),3,44.7,65.3
Gm9991 (GeneID 433332),1,69,68.5
Gm9991 (GeneID 433332),2,98.2,55.5
Gm9991 (GeneID 433332),3,118,45.3
Stra6l (GeneID 74152),1,68.9,86.2
Stra6l (GeneID 74152),2,82,92.8
Stra6l (GeneID 74152),3,82.7,37.3
Klhl12 (GeneID 240756),1,40.3,57.4
Klhl12 (GeneID 240756),2,89.4,48
E230015B07Rik (GeneID 320001),1,59.1,64.7
E230015B07Rik (GeneID 320001),2,61.3,52
E230015B07Rik (GeneID 320001),3,94.8,46.9
